Reference: patent US20240309360A1, “TRANS-ACTIVATORS AND METHODS AND USE THEREOF” (THE GOVERNING COUNCIL OF THE UNIVERSITY OF TORONTO, priority 2021, published 2024)
No constants are given. Whether binding was seen depends on the method and setting. Binding seen in cells or lysates may run through a third protein. Here binding means that the protein was enriched with, or labelled near, the bait; the list need not be complete. Where a sequence is shown, tags or fusion partners need not be part of it.

Sequences of proteins named here, by UniProt entry; tags and fusion partners are left off. Residues count along the entry.
UniProt Q92793, residues 2-2442: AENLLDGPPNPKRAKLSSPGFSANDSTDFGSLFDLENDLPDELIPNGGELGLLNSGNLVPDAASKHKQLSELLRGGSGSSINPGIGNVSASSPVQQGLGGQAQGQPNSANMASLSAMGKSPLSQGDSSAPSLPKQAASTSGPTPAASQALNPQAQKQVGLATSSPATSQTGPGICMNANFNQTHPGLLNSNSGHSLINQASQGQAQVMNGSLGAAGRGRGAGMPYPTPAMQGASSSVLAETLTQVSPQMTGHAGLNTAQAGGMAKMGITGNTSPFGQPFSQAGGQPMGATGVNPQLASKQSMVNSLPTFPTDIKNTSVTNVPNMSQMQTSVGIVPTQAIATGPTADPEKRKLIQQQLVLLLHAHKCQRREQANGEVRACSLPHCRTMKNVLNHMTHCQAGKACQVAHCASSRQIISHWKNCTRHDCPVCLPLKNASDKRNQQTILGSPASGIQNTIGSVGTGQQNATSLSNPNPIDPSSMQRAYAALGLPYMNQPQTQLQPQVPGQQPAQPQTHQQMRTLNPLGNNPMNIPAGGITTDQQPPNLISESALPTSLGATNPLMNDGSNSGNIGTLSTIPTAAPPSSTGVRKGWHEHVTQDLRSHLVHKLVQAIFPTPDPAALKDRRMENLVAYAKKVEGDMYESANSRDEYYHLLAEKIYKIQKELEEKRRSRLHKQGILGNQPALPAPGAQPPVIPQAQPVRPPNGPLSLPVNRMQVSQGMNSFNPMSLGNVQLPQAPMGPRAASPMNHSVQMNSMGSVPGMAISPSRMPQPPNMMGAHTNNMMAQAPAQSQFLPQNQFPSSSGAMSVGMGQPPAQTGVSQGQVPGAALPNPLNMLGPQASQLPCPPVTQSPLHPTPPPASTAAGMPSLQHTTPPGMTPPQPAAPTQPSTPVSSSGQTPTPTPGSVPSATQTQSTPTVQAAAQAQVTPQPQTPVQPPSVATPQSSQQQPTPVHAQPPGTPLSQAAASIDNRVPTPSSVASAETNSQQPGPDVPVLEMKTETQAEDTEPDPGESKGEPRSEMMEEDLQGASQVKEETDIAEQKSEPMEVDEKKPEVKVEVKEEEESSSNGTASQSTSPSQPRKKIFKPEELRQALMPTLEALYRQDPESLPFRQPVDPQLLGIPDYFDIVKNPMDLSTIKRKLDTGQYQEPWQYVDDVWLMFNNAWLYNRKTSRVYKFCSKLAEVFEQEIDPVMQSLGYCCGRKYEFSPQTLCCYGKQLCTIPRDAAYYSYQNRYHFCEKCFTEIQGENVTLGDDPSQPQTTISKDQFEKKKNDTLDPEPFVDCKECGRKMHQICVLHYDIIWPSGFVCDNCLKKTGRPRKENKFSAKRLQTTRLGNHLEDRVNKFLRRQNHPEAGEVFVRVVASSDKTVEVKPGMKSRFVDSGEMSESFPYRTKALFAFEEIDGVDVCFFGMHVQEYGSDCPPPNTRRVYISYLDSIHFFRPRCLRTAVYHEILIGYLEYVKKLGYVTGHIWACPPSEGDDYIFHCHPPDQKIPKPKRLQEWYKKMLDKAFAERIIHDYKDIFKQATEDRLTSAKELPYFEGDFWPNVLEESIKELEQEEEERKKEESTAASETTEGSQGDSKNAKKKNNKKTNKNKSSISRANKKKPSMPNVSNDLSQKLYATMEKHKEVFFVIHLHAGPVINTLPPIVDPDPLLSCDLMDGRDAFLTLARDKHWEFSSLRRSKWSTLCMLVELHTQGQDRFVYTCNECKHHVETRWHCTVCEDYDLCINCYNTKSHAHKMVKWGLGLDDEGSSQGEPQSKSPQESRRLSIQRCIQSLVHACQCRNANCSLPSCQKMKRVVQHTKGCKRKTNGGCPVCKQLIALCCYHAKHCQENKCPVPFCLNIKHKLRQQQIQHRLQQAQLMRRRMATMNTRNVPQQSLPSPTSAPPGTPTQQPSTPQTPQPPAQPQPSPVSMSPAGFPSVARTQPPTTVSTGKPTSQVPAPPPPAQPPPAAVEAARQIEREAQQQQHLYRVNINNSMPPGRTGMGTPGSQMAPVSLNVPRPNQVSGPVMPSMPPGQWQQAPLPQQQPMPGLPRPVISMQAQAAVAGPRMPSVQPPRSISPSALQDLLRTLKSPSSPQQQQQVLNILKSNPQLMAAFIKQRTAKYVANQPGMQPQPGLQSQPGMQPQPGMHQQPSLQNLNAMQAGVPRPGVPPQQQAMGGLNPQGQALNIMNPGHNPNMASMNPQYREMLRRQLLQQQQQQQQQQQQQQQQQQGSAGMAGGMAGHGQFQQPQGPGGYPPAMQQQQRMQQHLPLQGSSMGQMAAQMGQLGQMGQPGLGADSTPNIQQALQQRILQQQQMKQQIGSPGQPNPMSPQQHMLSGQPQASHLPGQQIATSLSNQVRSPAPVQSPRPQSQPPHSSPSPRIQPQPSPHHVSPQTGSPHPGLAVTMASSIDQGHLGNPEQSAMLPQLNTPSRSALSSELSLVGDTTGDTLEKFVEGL
UniProt Q09472, residues 2-2414: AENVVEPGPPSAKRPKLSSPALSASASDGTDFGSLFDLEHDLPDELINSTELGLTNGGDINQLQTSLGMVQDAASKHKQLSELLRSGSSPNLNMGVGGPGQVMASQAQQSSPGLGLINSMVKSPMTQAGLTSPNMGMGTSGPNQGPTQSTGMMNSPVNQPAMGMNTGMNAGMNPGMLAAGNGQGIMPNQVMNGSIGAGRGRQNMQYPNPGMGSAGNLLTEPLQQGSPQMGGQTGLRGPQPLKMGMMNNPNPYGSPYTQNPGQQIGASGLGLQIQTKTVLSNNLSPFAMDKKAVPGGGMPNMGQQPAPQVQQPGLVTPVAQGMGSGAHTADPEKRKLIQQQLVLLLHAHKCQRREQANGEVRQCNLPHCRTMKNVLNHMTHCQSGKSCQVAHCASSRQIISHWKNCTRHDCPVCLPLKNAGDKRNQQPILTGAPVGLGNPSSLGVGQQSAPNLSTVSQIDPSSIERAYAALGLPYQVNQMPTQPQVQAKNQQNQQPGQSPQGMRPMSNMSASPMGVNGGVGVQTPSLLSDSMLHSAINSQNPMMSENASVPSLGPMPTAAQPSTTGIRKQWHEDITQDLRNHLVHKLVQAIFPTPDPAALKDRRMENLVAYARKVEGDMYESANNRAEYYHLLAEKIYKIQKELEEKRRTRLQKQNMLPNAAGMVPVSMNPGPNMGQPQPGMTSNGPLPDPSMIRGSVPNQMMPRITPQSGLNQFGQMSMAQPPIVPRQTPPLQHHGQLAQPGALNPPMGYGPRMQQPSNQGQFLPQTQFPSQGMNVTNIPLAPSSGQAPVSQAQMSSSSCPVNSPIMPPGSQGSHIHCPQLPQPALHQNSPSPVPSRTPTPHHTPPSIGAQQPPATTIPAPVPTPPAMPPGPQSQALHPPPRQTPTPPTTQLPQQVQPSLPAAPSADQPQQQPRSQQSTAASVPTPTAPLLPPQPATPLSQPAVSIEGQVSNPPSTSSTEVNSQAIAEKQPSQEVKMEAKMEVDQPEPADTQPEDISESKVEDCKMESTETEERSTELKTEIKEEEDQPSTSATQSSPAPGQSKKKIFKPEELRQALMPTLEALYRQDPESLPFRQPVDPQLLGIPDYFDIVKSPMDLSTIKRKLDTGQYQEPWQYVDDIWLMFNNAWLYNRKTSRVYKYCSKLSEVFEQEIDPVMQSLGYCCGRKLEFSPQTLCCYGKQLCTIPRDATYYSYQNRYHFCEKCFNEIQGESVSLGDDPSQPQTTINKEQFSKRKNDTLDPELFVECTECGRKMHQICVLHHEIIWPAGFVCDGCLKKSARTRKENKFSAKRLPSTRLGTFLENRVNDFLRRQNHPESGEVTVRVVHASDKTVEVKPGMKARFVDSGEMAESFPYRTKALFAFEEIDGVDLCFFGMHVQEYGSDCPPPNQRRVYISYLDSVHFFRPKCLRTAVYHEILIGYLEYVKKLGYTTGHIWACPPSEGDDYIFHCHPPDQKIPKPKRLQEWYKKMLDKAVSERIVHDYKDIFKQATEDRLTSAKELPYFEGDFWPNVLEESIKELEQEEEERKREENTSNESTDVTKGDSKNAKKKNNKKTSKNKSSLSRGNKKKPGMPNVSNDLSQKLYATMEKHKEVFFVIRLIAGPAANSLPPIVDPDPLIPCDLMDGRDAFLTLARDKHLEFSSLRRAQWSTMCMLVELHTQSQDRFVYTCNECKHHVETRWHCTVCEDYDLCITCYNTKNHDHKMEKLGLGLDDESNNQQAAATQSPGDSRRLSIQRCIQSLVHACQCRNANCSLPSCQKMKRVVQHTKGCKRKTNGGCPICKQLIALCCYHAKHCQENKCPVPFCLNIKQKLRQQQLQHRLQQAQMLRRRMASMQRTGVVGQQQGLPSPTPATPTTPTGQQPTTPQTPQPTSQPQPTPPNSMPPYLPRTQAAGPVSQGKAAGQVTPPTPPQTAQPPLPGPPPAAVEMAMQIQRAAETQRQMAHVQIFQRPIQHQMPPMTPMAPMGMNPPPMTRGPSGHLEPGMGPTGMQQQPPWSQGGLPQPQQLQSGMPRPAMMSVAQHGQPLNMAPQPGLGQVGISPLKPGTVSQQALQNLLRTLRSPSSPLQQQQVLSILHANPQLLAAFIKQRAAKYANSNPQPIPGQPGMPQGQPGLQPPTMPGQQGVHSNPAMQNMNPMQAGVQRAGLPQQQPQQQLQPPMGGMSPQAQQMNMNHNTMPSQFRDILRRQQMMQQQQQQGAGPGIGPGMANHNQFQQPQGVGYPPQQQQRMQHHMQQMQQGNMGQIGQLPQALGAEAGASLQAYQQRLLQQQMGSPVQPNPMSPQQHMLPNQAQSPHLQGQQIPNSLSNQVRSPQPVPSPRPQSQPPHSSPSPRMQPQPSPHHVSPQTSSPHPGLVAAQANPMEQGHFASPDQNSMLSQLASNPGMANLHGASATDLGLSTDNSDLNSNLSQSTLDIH

Experiments:
[1] = substrate: CBP (human) (UniProt Q92793); assay: BioID2 proximity labelling, HEK293 cells
[2] = biological target: p300 (human) (UniProt Q09472); assay: BioID proximity labelling (FIG. 5D)
[3] = biological target: p300 (human) (UniProt Q09472); assay: BioID2 proximity labelling, HEK293 cells
[4] = substrate: CBP (human) (UniProt Q92793); assay: BioID proximity labelling (FIG. 5D)

Measured: binding

B1: SRF-C3orf62 fusion tagged with BirA-FLAG (protein, human;Aquifex aeolicus, UniProt P11831 1-338, looked up, not shown: small tags and cut ends)
chain: MLPTQAGAAAALGRGSALGGSLNRTPTGRPGGGGGTRGANGGRVPGNGAGLGPGRLEREAAAAAATTPAPTAGALYSGSEGDSESGEEEELGAERRGLKRSLSEMEIGMVVGGPEASAAATGGYGPVSGAVSGAKPGKKTRGRVKIKMEFIDNKLRRYTTFSKRKTGIMKKAYELSTLTGTQVLLLVASETGHVYTFATRKLQPMITSETGKALIQTCLNSPDSPPRSDPTTDQRMSATGFEETDLTYQVSESDSSGETKDTLKPAFTVTNLPGTTSTIQTAPSTSTTMQVSSGPSFPITNYLAPVSASVSPSAVSSANGTVLKSTGSGPVSSGGLMQAAVPCAPENENPAFATNHAPVNAKPHALCPERKPLTSKENVLMHSSILAPERESWRTAGEGENWRKENLRKDMERDLKADSNMPLNNSSQEVTKDLLDMIDHTSIRTIEELAGKIEFENELNHMCGHCQDSPFKEEAWALLMDKSPQKATDADPGSLKQAFDDHNIVETVLDLEEDYNVMTSFKYQIE
binds: all assays above
